Laboratory results: PubChem BioAssay AID743458 (Peter MacCallum Cancer Centre, 2014)
The deposit covers about 1,800 reagents; shown is a random part of them. Of all reagents, 732 (41%) got an active call. 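Calls are per siRNA reagent; a gene was deemed confirmed only if most of its four siRNAs scored.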 Reagents against one gene are numbered here.

- Purpose: 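Identify genes whose loss lifts vorinostat resistance in colon cancer cells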 (follow-up of hits)
- Cell system: human HCT116-VR colon cancer cells made resistant to vorinostat
- Reagent: single siRNA or pool against human genes, 25 nM per single siRNA
- Duration: about 72 h after transfection, including 24 h of drug
- Conditions: vorinostat, 2.5 µM final, for 24 h
- Measurement: 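Cell viability by fluorescence and apoptosis by caspase 3/7 luminescence under vorinostat, background-corrected, averaged across two plate copies and given as fold change versus mock transfection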
- Reading the numbers: viability relative to mock: higher = more living cells than mock; caspase activity relative to mock: higher = more apoptosis than mock
- Rule for the call: 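Active means a reduced-viability or caspase-activation class, anything else inactive; classes could only be given to wells that looked healthy when left untreated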

What is on record for GPR101 #1?
viability relative to mock: 0.83; caspase activity relative to mock: 1.64; viability hit class: no change; caspase hit class: no change; activity call: inactive

With GPR101 #2, what was measured?
viability relative to mock: 0.88; caspase activity relative to mock: 1.98; viability hit class: no change; caspase hit class: no change; activity call: inactive

With GPR101 #3, how do the results read?
viability relative to mock: 0.61; caspase activity relative to mock: 1.98; viability hit class: no change; caspase hit class: no change; activity call: inactive

For GPR101 #4, how do the results read?
viability relative to mock: 0.71; caspase activity relative to mock: 1.63; viability hit class: no change; caspase hit class: no change; activity call: inactive

Which result is listed for LBHD1 #1?
viability relative to mock: 0.88; caspase activity relative to mock: 2.77; viability hit class: no change; caspase hit class: caspase activation; activity call: active

What is on record for LBHD1 #2?
viability relative to mock: 0.82; caspase activity relative to mock: 1.99; viability hit class: no change; caspase hit class: no change; activity call: inactive

What did the screen give for LBHD1 #3?
viability relative to mock: 0.82; caspase activity relative to mock: 3.09; viability hit class: no change; caspase hit class: caspase activation; activity call: active

Which result is listed for LBHD1 #4?
viability relative to mock: 0.67; caspase activity relative to mock: 2.67; viability hit class: no change; caspase hit class: caspase activation; activity call: active

Records above with an active call, once more:
LBHD1 #1 → viability relative to mock: 0.88; caspase activity relative to mock: 2.77; viability hit class: no change; caspase hit class: caspase activation; activity call: active
LBHD1 #3 → viability relative to mock: 0.82; caspase activity relative to mock: 3.09; viability hit class: no change; caspase hit class: caspase activation; activity call: active
LBHD1 #4 → viability relative to mock: 0.67; caspase activity relative to mock: 2.67; viability hit class: no change; caspase hit class: caspase activation; activity call: active

Next reagents follow.
With NUP205 #1, what does the deposit list?
viability relative to mock: 0.25; caspase activity relative to mock: 4.19; viability hit class: reduced viability; caspase hit class: caspase activation; activity call: active

How did the screen score NUP205 #2?
viability relative to mock: 0.33; caspase activity relative to mock: 3.06; viability hit class: reduced viability; caspase hit class: caspase activation; activity call: active

For NUP205 #3, what was measured?
viability relative to mock: 0.33; caspase activity relative to mock: 3.49; viability hit class: reduced viability; caspase hit class: caspase activation; activity call: active

What is on record for NUP205 #4?
viability relative to mock: 0.44; caspase activity relative to mock: 3.29; viability hit class: reduced viability; caspase hit class: caspase activation; activity call: active
